Measured values as given in article PMC4041446, “Eukaryotic and archaeal TBP and TFB/TF(II)B follow different promoter DNA bending pathways”.
These are yes or no findings as the source states them, for the method shown. A result given as binding can be weak or reduced; the word gives no strength.

Molecular target: T1, Sulfolobus acidocaldarius TATA-binding protein (Sulfolobus acidocaldarius) (UniProt Q9UWN7)
T1 sequence: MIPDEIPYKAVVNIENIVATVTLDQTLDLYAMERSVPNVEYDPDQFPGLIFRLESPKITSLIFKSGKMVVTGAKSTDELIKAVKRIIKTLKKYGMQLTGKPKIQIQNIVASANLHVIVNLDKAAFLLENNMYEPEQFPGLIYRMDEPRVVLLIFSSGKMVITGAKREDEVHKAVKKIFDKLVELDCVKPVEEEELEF
Experiment: native gel or EMSA; SaTBP and SaTFB incubated with promoter DNA (DNA_SSV); ternary complex on DNA; supershift with anti-SaTFB and anti-SaTBP antibodies; conditions are in Supplementary Figure S4; both purified

Substance: Sulfolobus acidocaldarius transcription factor B (TFB1), C-terminally His-tagged
- binding: binds
